In patent publication US20060252699A1, “Method for lowering serum homocysteine” (priority 2004, published 2006):

Assay: L-isoleucine therapy for 10 weeks in postmenopausal women: serum folate and vitamin B12 levels
Format: in vivo, human
Settings: associated with L-isoleucine therapy
Procedure: L-isoleucine therapy (3-5 grams/day divided into two doses per day) was administered to 17 postmenopausal women for 10 weeks. The L-isoleucine therapy was associated with an 11% average reduction in serum homocysteine levels among 14 post menopausal woman experiencing hot flashes.
None of the participants had clinically low folate or B12 at baseline or while on treatment.

Which results are given for `CC[C@H](C)[C@H](N)C(=O)O` [L-isoleucine]?
changes in serum folate levels: no significant changes; changes in serum vitamin B12 levels: no significant changes
